Record: PubChem BioAssay AID1259425 (University of Nebraska Medical Center, 2018)
Test: 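Seek colon cancer weak points whose silencing resembles KSR1 loss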 (primary screen). System: HCT116 human colon cancer cells. Reagent: siRNA pool against human genes, 50 nM siRNA. Detection: 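mRNA of six signature genes measured together by branched-DNA assay after 50 nM siRNA pool, blank removed, divided by geometric mean of two housekeeping genes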. Reading the numbers: BNIP3L mRNA: higher = more BNIP3L transcript after knockdown; NDRG1 mRNA: higher = more NDRG1 transcript after knockdown; BNIP3 mRNA: higher = more BNIP3 transcript after knockdown; ALDOC mRNA: higher = more ALDOC transcript after knockdown; ACSL5 mRNA: higher = more ACSL5 transcript after knockdown.
Shown is an unselected part of about 14,000 deposited reagents. A reagent listed more than once was tested more than once; the source does not tell the runs apart. Not given: the time to read-out.

| target gene | BNIP3L mRNA, set 1 | NDRG1 mRNA, set 1 | BNIP3 mRNA, set 1 | ALDOC mRNA, set 1 | ACSL5 mRNA, set 1 |
| --- | --- | --- | --- | --- | --- |
| SYT5 (GeneID 6861) | 0.207 | 0.232 | 0.359 | 0.0738 | 0.181 |
| ELK4 (GeneID 2005) | 0.125 | 0.0646 | 0.389 | -0.00185 | 0.132 |
| NFKBIB (GeneID 4793) | 0.113 | 0.166 | 0.278 | 0.0295 | 0.0803 |
| METTL17 (GeneID 64745) | 0.0936 | 0.118 | 0.335 | 0.0477 | 0.0962 |
| BCL3 (GeneID 602) | 0.108 | 0.152 | 0.321 | 0.0494 | 0.0838 |
| UGDH (GeneID 7358) | 0.139 | 0.147 | 0.257 | 0.0185 | 0.136 |
| VENTX (GeneID 27287) | 0.132 | 1.57 | 0.337 | 0.0121 | 0.246 |
| HBA1 (GeneID 3039) | 0.163 | 0.223 | 0.308 | 0.0278 | 0.152 |
| MYOC (GeneID 4653) | 0.0862 | 0.372 | 0.249 | 0.0141 | 0.153 |
| MGAT3 (GeneID 4248) | 0.0473 | 0.133 | 0.205 | 0.0125 | 0.115 |
| KCNJ12 (GeneID 3768) | 0.0848 | 0.364 | 0.472 | 0.0283 | 0.12 |
| UPF2 (GeneID 26019) | 0.0636 | 0.174 | 0.465 | 0.0199 | 0.0747 |
| GABRP (GeneID 2568) | 0.0621 | 0.378 | 0.268 | 0.0219 | 0.198 |
| XYLT2 (GeneID 64132) | 0.157 | 0.278 | 0.217 | 0.0229 | 0.224 |
| ZNF318 (GeneID 24149) | 0.167 | 0.316 | 0.469 | 0.0252 | 0.372 |
| PCNT (GeneID 5116) | 0.101 | 1.49 | 0.377 | 0.0415 | 0.211 |
| AGTR2 (GeneID 186) | 0.0884 | 0.0593 | 0.56 | 0.00991 | 0.218 |
| AGTR2 (GeneID 186) | 0.081 | 0.0801 | 0.334 | 0.0188 | 0.107 |
| DCLRE1B (GeneID 64858) | 0.105 | 0.34 | 0.232 | 0.0236 | 0.192 |
| TRA2B (GeneID 6434) | 0.162 | 0.6 | 0.433 | 0.0161 | 0.377 |
| GP1BA (GeneID 2811) | 0.204 | 1.02 | 0.229 | 0.0407 | 0.297 |
| ALG2 (GeneID 85365) | 0.091 | 0.211 | 0.121 | 0.036 | 0.15 |
| MEA1 (GeneID 4201) | 0.0786 | 0.271 | 0.277 | 0.0125 | 0.253 |
| PINX1 (GeneID 54984) | 0.0893 | 0.0925 | 0.301 | 0.0112 | 0.221 |
| AP3M1 (GeneID 26985) | 0.0836 | 0.0969 | 0.304 | 0.0225 | 0.117 |
| GALNT1 (GeneID 2589) | 0.108 | 0.205 | 0.345 | 0.0164 | 0.145 |
| ATF7IP2 (GeneID 80063) | 0.168 | 0.356 | 0.367 | 0.0621 | 0.163 |
| ACRBP (GeneID 84519) | 0.209 | 0.202 | 0.204 | 0.0208 | 0.122 |
| GABRA4 (GeneID 2557) | 0.0643 | 0.186 | 0.255 | 0.0199 | 0.283 |
| STON2 (GeneID 85439) | 0.162 | 0.431 | 0.264 | 0.0657 | 0.303 |
| MIS18BP1 (GeneID 55320) | 0.129 | 0.25 | 0.351 | 0.0192 | 0.17 |

Reprinted from above, 10 entries:
| target gene | BNIP3L mRNA, set 1 | NDRG1 mRNA, set 1 | BNIP3 mRNA, set 1 | ALDOC mRNA, set 1 | ACSL5 mRNA, set 1 |
| --- | --- | --- | --- | --- | --- |
| ZNF318 (GeneID 24149) | 0.167 | 0.316 | 0.469 | 0.0252 | 0.372 |
| PCNT (GeneID 5116) | 0.101 | 1.49 | 0.377 | 0.0415 | 0.211 |
| AGTR2 (GeneID 186) | 0.0884 | 0.0593 | 0.56 | 0.00991 | 0.218 |
| AGTR2 (GeneID 186) | 0.081 | 0.0801 | 0.334 | 0.0188 | 0.107 |
| DCLRE1B (GeneID 64858) | 0.105 | 0.34 | 0.232 | 0.0236 | 0.192 |
| TRA2B (GeneID 6434) | 0.162 | 0.6 | 0.433 | 0.0161 | 0.377 |
| GP1BA (GeneID 2811) | 0.204 | 1.02 | 0.229 | 0.0407 | 0.297 |
| ALG2 (GeneID 85365) | 0.091 | 0.211 | 0.121 | 0.036 | 0.15 |
| MEA1 (GeneID 4201) | 0.0786 | 0.271 | 0.277 | 0.0125 | 0.253 |
| PINX1 (GeneID 54984) | 0.0893 | 0.0925 | 0.301 | 0.0112 | 0.221 |

Continued.
| target gene | BNIP3L mRNA, set 1 | NDRG1 mRNA, set 1 | BNIP3 mRNA, set 1 | ALDOC mRNA, set 1 | ACSL5 mRNA, set 1 |
| --- | --- | --- | --- | --- | --- |
| H3C7 (GeneID 8968) | 0.101 | 0.0906 | 0.288 | 0.0245 | 0.0589 |
| NAA20 (GeneID 51126) | 0.0611 | 0.16 | 0.407 | 0.0121 | 0.163 |
| AKNA (GeneID 80709) | 0.081 | 0.257 | 0.294 | 0.0213 | 0.171 |
| ZNF202 (GeneID 7753) | 0.0981 | 0.705 | 0.333 | 0.0175 | 0.08 |
| TAGLN (GeneID 6876) | 0.0996 | 0.459 | 0.303 | 0.0286 | 0.103 |
| CLSPN (GeneID 63967) | 0.125 | 0.299 | 0.437 | 0.00906 | 0.159 |
| IFNA10 (GeneID 3446) | 0.0793 | 0.136 | 0.296 | 0.0169 | 0.118 |
| BDNF (GeneID 627) | 0.103 | 0.479 | 0.273 | 0.0274 | 0.225 |
| BLK (GeneID 640) | 0.221 | 0.198 | 0.824 | 0.0115 | 0.159 |
| HRH1 (GeneID 3269) | 0.0833 | 0.0657 | 0.291 | 0.0267 | 0.123 |
| MFSD1 (GeneID 64747) | 0.131 | 0.159 | 0.311 | 0.0229 | 0.104 |
| FOXD1 (GeneID 2297) | 0.146 | 0.0874 | 0.331 | 0.0171 | 0.203 |
| PYM1 (GeneID 84305) | 0.164 | 0.228 | 0.237 | 0.0876 | 0.27 |
| FRMPD4 (GeneID 9758) | 0.158 | 0.262 | 0.535 | 0.0621 | 0.108 |
| LRRC8B (GeneID 23507) | 0.109 | 0.173 | 0.375 | 0.0355 | 0.0545 |
| PTS (GeneID 5805) | 0.124 | 0.195 | 0.308 | 0.0285 | 0.105 |
| SERPINB2 (GeneID 5055) | 0.101 | 0.127 | 0.252 | 0.025 | 0.101 |
| SEC61B (GeneID 10952) | 0.465 | 0.468 | 0.515 | 0.0396 | 0.136 |
| ABCD1 (GeneID 215) | 0.122 | 0.279 | 0.369 | 0.0263 | 0.0776 |
| ACYP2 (GeneID 98) | 0.118 | 0.0637 | 0.309 | 0.00532 | 0.167 |
| MARCHF1 (GeneID 55016) | 0.0791 | 0.105 | 0.219 | 0.0158 | 0.0894 |
| NPIPB3 (GeneID 23117) | 0.111 | 0.395 | 0.22 | 0.0216 | 0.133 |
| PCDHGC4 (GeneID 56098) | 0.0839 | 0.114 | 0.296 | 0.0386 | 0.253 |
| LAMA5 (GeneID 3911) | 0.0688 | 0.0986 | 0.234 | 0.0147 | 0.281 |
| TNFRSF12A (GeneID 51330) | 0.102 | 0.407 | 0.271 | 0.065 | 0.108 |
| F2RL2 (GeneID 2151) | 0.12 | 0.283 | 0.395 | 0.0382 | 0.297 |
| CEP15 (GeneID 57415) | 0.0773 | 0.235 | 0.279 | 0.0344 | 0.105 |
| GDPD3 (GeneID 79153) | 0.113 | 0.272 | 0.153 | 0.139 | 0.184 |
| NFATC3 (GeneID 4775) | 0.162 | 0.101 | 0.249 | 0.0122 | 0.0936 |
| ZNF692 (GeneID 55657) | 0.144 | 0.122 | 0.37 | 0.0046 | 0.133 |
| ZBTB5 (GeneID 9925) | 0.0593 | 0.33 | 0.345 | 0.0194 | 0.246 |
| PI4KA (GeneID 5297) | 0.21 | 0.144 | 0.331 | 0.027 | 0.627 |
